Reference: publication PMC9295074
Results are given in words; binding and its absence hold for the method and conditions named. In cells and extracts the contact can be indirect. Some results given as binding are weak or reduced against the parent protein; the word gives no strength.

Amino acid sequences for entries named in this document (tags omitted).
UniProt Q92754: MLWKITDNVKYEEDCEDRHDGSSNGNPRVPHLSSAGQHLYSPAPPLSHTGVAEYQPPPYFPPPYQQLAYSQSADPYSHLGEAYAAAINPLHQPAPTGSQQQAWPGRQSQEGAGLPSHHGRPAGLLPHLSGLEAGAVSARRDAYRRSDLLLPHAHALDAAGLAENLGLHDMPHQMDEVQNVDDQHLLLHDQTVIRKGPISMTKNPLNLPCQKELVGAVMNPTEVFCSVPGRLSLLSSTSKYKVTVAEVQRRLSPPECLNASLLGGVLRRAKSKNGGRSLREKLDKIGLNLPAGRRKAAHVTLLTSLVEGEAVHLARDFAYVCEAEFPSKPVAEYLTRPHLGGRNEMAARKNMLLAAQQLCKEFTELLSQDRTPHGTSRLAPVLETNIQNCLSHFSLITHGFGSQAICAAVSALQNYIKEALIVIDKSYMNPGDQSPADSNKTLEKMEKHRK
UniProt O94972: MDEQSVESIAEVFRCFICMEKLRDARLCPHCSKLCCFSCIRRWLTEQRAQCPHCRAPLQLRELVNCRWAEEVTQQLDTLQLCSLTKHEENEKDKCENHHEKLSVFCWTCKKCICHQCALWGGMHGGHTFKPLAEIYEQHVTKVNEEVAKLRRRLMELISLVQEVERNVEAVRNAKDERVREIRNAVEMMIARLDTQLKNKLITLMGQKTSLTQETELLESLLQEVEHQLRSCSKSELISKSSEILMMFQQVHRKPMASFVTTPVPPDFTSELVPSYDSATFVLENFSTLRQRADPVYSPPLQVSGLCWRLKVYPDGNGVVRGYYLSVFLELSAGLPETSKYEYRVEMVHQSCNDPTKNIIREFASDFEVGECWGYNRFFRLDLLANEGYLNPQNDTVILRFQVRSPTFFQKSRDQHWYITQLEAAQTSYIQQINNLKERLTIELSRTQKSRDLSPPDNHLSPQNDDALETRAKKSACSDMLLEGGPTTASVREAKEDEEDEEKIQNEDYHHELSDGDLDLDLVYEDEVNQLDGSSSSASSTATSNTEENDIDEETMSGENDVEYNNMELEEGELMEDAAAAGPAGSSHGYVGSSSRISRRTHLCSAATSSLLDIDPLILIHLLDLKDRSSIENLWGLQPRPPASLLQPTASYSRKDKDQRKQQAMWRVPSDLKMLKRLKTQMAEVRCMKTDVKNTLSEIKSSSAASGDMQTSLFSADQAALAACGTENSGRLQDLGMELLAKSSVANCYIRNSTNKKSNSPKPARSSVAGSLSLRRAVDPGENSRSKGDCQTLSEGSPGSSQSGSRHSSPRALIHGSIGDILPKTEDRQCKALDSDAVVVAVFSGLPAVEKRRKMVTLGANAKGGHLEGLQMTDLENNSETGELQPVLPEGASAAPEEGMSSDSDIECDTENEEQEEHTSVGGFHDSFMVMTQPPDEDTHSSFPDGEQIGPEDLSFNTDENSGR

Molecular target: Activator Protein 2 gamma (AP-2γ) (human (endogenous in MCF-7 and BT474)) (UniProt Q92754)
Test: co-IP; nuclear AP-2γ of MCF-7 or BT474 cells immunoprecipitated with 5 µg AP-2γ antibody on magnetic beads overnight at 4 °C, washed with RIPA lysis buffer; TRIM37 detected by immunoblotting; IgG as negative control; lysates made as in the ChIP method

binding: binds
Substance: Tripartite motif-containing 37 (TRIM37) (from UniProt O94972 1-964)
